Reference: PubChem BioAssay AID529 (NMMLSC, 2006)
The whole screen tested about 24,000 compounds, of which about 50 (0.2%) were called active. Inconclusive means that the source gave no clear call. Such entries were picked first, then a sample of the others.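 How the source made its calls: active means inhibition above 50%; inconclusive means compound itself fluorescent, judged against control cell fluorescence; inactive means the rest.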

Amino acid sequences for entries named in this document (tags omitted).
UniProt P13612, whole entry, looked up: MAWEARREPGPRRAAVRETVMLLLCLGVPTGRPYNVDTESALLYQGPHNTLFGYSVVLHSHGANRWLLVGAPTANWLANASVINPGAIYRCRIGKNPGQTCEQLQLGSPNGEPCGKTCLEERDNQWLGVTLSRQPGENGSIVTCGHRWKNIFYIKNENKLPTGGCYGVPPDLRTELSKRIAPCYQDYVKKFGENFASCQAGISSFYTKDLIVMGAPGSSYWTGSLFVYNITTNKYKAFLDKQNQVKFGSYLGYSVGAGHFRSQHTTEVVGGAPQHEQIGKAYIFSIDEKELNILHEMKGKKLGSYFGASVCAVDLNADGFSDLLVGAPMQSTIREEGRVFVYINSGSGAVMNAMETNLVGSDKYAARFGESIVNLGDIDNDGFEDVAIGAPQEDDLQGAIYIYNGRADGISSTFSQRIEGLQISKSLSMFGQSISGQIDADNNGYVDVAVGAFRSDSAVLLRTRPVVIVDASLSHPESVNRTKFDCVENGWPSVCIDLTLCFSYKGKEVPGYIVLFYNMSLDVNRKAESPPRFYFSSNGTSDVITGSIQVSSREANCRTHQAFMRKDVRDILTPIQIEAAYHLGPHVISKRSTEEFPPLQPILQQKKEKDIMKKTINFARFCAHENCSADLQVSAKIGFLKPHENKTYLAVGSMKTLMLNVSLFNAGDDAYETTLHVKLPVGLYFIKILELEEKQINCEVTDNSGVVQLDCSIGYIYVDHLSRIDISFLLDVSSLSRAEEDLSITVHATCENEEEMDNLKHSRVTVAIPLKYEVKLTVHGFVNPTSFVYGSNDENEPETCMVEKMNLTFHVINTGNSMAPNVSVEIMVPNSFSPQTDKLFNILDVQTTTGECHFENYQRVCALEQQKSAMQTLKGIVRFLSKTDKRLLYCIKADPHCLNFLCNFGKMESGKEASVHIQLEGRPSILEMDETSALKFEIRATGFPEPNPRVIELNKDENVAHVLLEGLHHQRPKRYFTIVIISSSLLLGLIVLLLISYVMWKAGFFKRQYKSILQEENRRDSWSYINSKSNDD

target: Integrin alpha-4 (Homo sapiens) (UniProt P13612); assay: blockers of LDV-FITC ligand binding on VLA-4 – Jurkat cells, Mn2+ activated, primary screen (AID 529); details: LDV-FITC binding with Mn2+, flow cytometry; stronger effect = higher value, screened at 10 µM (by protocol), 100% = Mn2+-driven binding gain fully reversed unless noted;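 on inhibition: 0% = Mn2+ stimulated cells lacking compound and 100% = ligand binding without Mn2+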

Structure (SMILES)	inhibition
COc1ccc2cc3cc(C(=O)N4CCN(Cc5ccc6c(c5)OCO6)CC4)oc3nc2c1	inconclusive
COc1ccc2cc3cc(C(=O)NCc4ccccn4)oc3nc2c1	inconclusive
O=C(c1cccc(S(=O)(=O)N2CCOCC2)c1)N1CCCC1	inconclusive
CCOC(=O)C1CCN(C(=O)c2cc3cc4cc(OC)ccc4nc3o2)CC1	inconclusive
O=c1cc(CO)oc(C(Nc2ccccn2)c2ccsc2)c1O (stereo not given)	inconclusive
CCC(=O)c1cc2c(C)cc(=O)oc2c(C)c1O	inactive: -2%
COc1ccc(C2C3=C(CCCC3=O)Nc3nc(C(F)(F)F)nn32)c(OC)c1OC (stereo not given)	inactive: -11%
Cc1nc2ncnn2c(C)c1CCC(=O)N1CCN(C(=O)c2ccco2)CC1	inactive: 10% [stronger effect = higher value, 100% = Mn2+-driven binding gain fully reversed, screened at 10 µM (by protocol)]
Cc1ccccc1NC(=O)CN(C)S(=O)(=O)c1cccc2cccnc12	inconclusive
CN1CCN(Cc2c(O)ccc3c(=O)c(Oc4ccccc4Cl)c(C(F)(F)F)oc23)CC1	inconclusive
COCc1cc(C)c(C#N)c(=S)[nH]1	inconclusive
O=C(Cn1c(=O)n(CCCC(=O)NC2CCCC2)c(=O)c2ccccc21)NCCC1=CCCCC1	86%
O=C(CN1CCN(C(=O)c2c(F)cccc2F)CC1)Nc1ccccc1F	inconclusive
CCN1CCN(C(=O)C2c3cc(OC)c(OC)cc3C(=O)N(C)C2c2ccc(SC)cc2)CC1 (stereo not given)	inactive: -13%
N#Cc1c(N)n(CCOC(=O)c2cccc(Br)c2)c2nc3ccccc3nc12	inconclusive
O=C(CCS(=O)(=O)c1ccc(Br)s1)N1CCc2ccccc21	inactive: 9%
O=C1CC2CS(=O)(=O)CC2N1C1CCCCC1 (stereo not given)	inconclusive
CCN(CC)c1ccc(/C=N/n2nnnc2N)c(O)c1	inconclusive
COCCCN(C(=O)Cn1ncc2c(=O)oc3ccc(C)cc3c21)C(C)c1ccncc1 (stereo not given)	inconclusive
CCOc1ccc(C2CC(c3ccc(F)cc3)n3ncnc3N2)cc1 (stereo not given)	inactive: -7%
CCN1CCN(c2cc(C)c3cc(NC(=O)c4ccc(Br)o4)ccc3n2)CC1	inactive: 9%
CC1CC(C)CN(S(=O)(=O)c2ccc(NC(=O)C3COc4ccccc4O3)cc2)C1 (stereo not given)	inconclusive
COc1cc(C2CC(=O)N3CN(Cc4ccco4)CSC3=C2C#N)ccc1OCc1ccccc1 (stereo not given)	inconclusive
CCCOc1ccc2oc(=O)c3c(c2c1)CCCN3C(=O)CN1CCN(C(=O)c2ccco2)CC1	inconclusive
CCOc1cc2[nH]c(=S)n(CCCN3CCCC3=O)c(=O)c2cc1OCC	inactive: -5% [stronger effect = higher value, 100% = Mn2+-driven binding gain fully reversed, screened at 10 µM (by protocol)]

2 neighbouring entries out of the list so far, quoted:
Structure (SMILES)	inhibition
N#Cc1c(N)n(CCOC(=O)c2cccc(Br)c2)c2nc3ccccc3nc12	inconclusive
O=C(CCS(=O)(=O)c1ccc(Br)s1)N1CCc2ccccc21	inactive: 9%
